Some of the results follow.
target: T1, OsSMF1 (Oryza sativa, UniProt Q6ZLB0 1-436); test: protein-binding microarray (RPBM); PBS, 2% BSA, 51.3 ng/ul salmon testes DNA, 50 uM zinc acetate, 200 nM TF, 25 C, 1 h; high values mean tight binding; conditions: protein: recombinant; tags: N-terminal polyhistidine and DsRed monomer fusion (pET32a); chain copies: 2; label: CyDye5-dUTP incorporated in the synthesized complementary strand; 3' TTTTT single-stranded linker to array surface; dsDNA, one strand shown
T1 sequence: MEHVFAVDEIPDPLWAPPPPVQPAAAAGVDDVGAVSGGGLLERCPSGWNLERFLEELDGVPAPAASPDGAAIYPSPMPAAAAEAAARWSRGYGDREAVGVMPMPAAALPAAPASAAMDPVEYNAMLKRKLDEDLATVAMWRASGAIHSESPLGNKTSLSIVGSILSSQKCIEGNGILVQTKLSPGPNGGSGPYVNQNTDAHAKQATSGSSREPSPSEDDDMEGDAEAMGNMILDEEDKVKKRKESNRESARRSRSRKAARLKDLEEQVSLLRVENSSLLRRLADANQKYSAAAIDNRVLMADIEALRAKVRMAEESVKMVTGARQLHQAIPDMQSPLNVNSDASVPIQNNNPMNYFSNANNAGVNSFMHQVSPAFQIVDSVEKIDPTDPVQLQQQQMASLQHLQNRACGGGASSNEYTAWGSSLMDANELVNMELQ
How it was run: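 For the binding signal, per-feature fluorescence intensity was read in arbitrary units on an Axon 4000B scanner. Before scanning, a 2% BSA-blocked custom Agilent array made double-stranded with Cy5-dUTP was washed after 1 h at 25 °C with 200 nM protein and 50 µM zinc acetate. The proteins were Ni–NTA-purified transcription factors with N-terminal polyhistidine and DsRed fusions, expressed in E. coli BL21-CodonPlus.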

Sequence | binding signal
GAAAATCGTTTACCTAGTAGTGTCTTTAGCAGGTTTTCTCCGGAGTCACCTAGTGCAG | 9500 fluorescence intensity (a.u.)
AGATAGACAAACCAAAACAAAACTAAGCTTCAAGTCCAAACGGAGTCACCTAGTGCAG | 26400 fluorescence intensity (a.u.)
CCCACATCGCTCCGCGTCATTAGATTTAGCACTTTATCTTCGGAGTCACCTAGTGCAG | 5240 fluorescence intensity (a.u.)
GTCGGAAGCTATCGAGACGATGGAGAGGGATGGAAGATATCGGAGTCACCTAGTGCAG | 31800 fluorescence intensity (a.u.)
GTTGCACGACTTATCAACGTGTTATGTACTTATGTGCCATCGGAGTCACCTAGTGCAG | 3440 fluorescence intensity (a.u.)
CACTGTCAGGATTGCCTCCCCGGTGCATGCACACATCCTCCGGAGTCACCTAGTGCAG | 3940 fluorescence intensity (a.u.)
AACGAAGATTTAAGTAGTACACTGATCGGGATGAGGTGGCCGGAGTCACCTAGTGCAG | 4260 fluorescence intensity (a.u.)
GCCTTTCTCTCCACCGCGATTTCTATATATAAAACGCCCCCGGAGTCACCTAGTGCAG | 9620 fluorescence intensity (a.u.)
CGACCACCTTTCATCCCAACGCACATACGCACCTACGCATCGGAGTCACCTAGTGCAG | 3160 fluorescence intensity (a.u.)
GAGAGAGGTTGTGCAAGGCTGAGCATGCAAACTCGTGCATCGGAGTCACCTAGTGCAG | 27000 fluorescence intensity (a.u.)
GTGTATATATACGTGTACATGCATGTACACGCAATCTCTCCGGAGTCACCTAGTGCAG | 8340 fluorescence intensity (a.u.)
CTGGCCTACAAGGGAGGTTGGACATGACAAGGACTCCAGGCGGAGTCACCTAGTGCAG | 4000 fluorescence intensity (a.u.)
ACCGAAAGTGAGACGAGCTGCCCAGTTTTCCACACTCCATCGGAGTCACCTAGTGCAG | 3400 fluorescence intensity (a.u.)
CTCCACAGCAGCTTGCCGGCCTCCTTGCTTTGCATTGCATCGGAGTCACCTAGTGCAG | 15400 fluorescence intensity (a.u.)
CACGAGCTGGTGGGCATCGAGGACTCCACACACGCGCATCCGGAGTCACCTAGTGCAG | 42800 fluorescence intensity (a.u.)
AAAGAAGGAAAGGTGGTAGTACTACGTGTCAGGTCCATGGCGGAGTCACCTAGTGCAG | 7360 fluorescence intensity (a.u.)
AAGTTTGGCTGTATTTATTCCACACCATAATTGAAAGTTTCGGAGTCACCTAGTGCAG | 3160 fluorescence intensity (a.u.)
ACTTCCCTTTCGAGGAGTGCATGAACTTTGAGACGTCAGCCGGAGTCACCTAGTGCAG | 4090 fluorescence intensity (a.u.)
CAACCTTCCTCGTGCCGCCCATTGCGTGGTCACCACCCTTCGGAGTCACCTAGTGCAG | 4060 fluorescence intensity (a.u.)
CTCCGATACGTATCCCGTACGTATCGCTATTTACTTCGATCGGAGTCACCTAGTGCAG | 4930 fluorescence intensity (a.u.)
GAGAGGAGGCTGCTGTGGCCACGCTAGCATGTGGAGCTCACGGAGTCACCTAGTGCAG | 4550 fluorescence intensity (a.u.)

Part of the list above in a different format.
AGATAGACAAACCAAAACAAAACTAAGCTTCAAGTCCAAACGGAGTCACCTAGTGCAG
  binding signal: 26400 fluorescence intensity (a.u.)
CCCACATCGCTCCGCGTCATTAGATTTAGCACTTTATCTTCGGAGTCACCTAGTGCAG
  binding signal: 5240 fluorescence intensity (a.u.)

Additional results

Sequence | binding signal
TGTATTGTGGGCCCACACGTCATCCTTTCTTTCCAACCCTCGGAGTCACCTAGTGCAG | 22300 fluorescence intensity (a.u.)
ATTTTCCATTTTGAAAATTGACGGAAATAGTCGCCTACCGCGGAGTCACCTAGTGCAG | 19200 fluorescence intensity (a.u.)
GGCCCCACTGCGCAGCGGGACAATGAAGGACATATTTGTACGGAGTCACCTAGTGCAG | 22600 fluorescence intensity (a.u.)
GTCCGTACGGCTGCGGCTGTAGATGACGTCGTTGCAGTGGCGGAGTCACCTAGTGCAG | 5510 fluorescence intensity (a.u.)
GTCTCCCTCCACCCATGCCGTGGCAATCGAGCTCATCTCCCGGAGTCACCTAGTGCAG | 4910 fluorescence intensity (a.u.)
GATCTCGCCGAACGCCGCAAACTCCTTGGTGAGCGCCTTCCGGAGTCACCTAGTGCAG | 3580 fluorescence intensity (a.u.)
AAATACTCATAATAATTGCTAGTGAATGATGATGTGGCACCGGAGTCACCTAGTGCAG | 19100 fluorescence intensity (a.u.)
GAAAGTGGACGCGCGCGGTCTGGCGTCACCTGGGCCGAAACGGAGTCACCTAGTGCAG | 3320 fluorescence intensity (a.u.)
GGATTGGCGGAAAGCTGACTGTGCTGTTCTCATATCCTTTCGGAGTCACCTAGTGCAG | 7200 fluorescence intensity (a.u.)
GTATTTCTATCCAGGGACGAATTTCAGACTCAGTGACAACCGGAGTCACCTAGTGCAG | 14500 fluorescence intensity (a.u.)
ATTGAAGATGCACCACAATGTATATATGTGTAGAGTGGGTCGGAGTCACCTAGTGCAG | 3560 fluorescence intensity (a.u.)
AATGCTGACCGTGAGTCCACGAGCGCCGCCGATGCGGATGCGGAGTCACCTAGTGCAG | 3220 fluorescence intensity (a.u.)
CATGGTGGACGACGACTCTAGCTGTCACGTAGCTCGGTCGCGGAGTCACCTAGTGCAG | 3140 fluorescence intensity (a.u.)
CCATCCACCGACGCACCCTCCCGTCCACGTGCCTCCGCTGCGGAGTCACCTAGTGCAG | 3430 fluorescence intensity (a.u.)
ATGTATTGGATCCATCTGTACTCCATTATCACGCACGCCTCGGAGTCACCTAGTGCAG | 8570 fluorescence intensity (a.u.)
AGAGAAGACGCATAATAAATTTACCGTGTCGGTGTGATTACGGAGTCACCTAGTGCAG | 3190 fluorescence intensity (a.u.)
CTTTCTGATGTGTCAAGCGGCATCTCTGATCTTCTTTCTGCGGAGTCACCTAGTGCAG | 3900 fluorescence intensity (a.u.)
AGGAAGATGGGTTGAGCCCACTTTAGTTGTCAGTAGTGGTCGGAGTCACCTAGTGCAG | 3730 fluorescence intensity (a.u.)
TCCTTCGATTCCAAGCATATAGTAATATATGACACGATGCCGGAGTCACCTAGTGCAG | 5000 fluorescence intensity (a.u.)
GGCCTGTCGTACAAGCCGCTTTGCTTGGGCATACAAGCAACGGAGTCACCTAGTGCAG | 65100 fluorescence intensity (a.u.)
CGAGAAGGATGTGGTTCGCCGATGCCACGCTTCTAGAGGACGGAGTCACCTAGTGCAG | 3490 fluorescence intensity (a.u.)

Reference: paper PMC7819943, “Rice protein-binding microarrays: a tool to detect cis-acting elements near promoter regions in rice”
